# Reference: PubChem BioAssay AID1347076 (National Center for Advancing Translational Sciences (NCATS), 2019)
# Screen size: about 400,000 compounds; about 13,000 (3.2%) were called active. Inconclusive results, whose numbers are uncertain, are shown with a selection of clear calls. The call rests on the fitted dose curve; in most records, active means well fitted cell-killing curve with a large enough effect; inconclusive means small, poorly fitted or top-dose-only effect, or effect the other way; inactive means flat fitted curve, though single readings scatter. Potencies beside an inconclusive call are fits to weak or partial responses and may not hold up.
# Test: qHTS assay for MDR1-selective chemotherapeutics: Primary screen using the drug-selected MDR subline cells KB-V1; further: nearly all actives have a fitted effect of over 60% in size
# Conditions: KB-V1 MDR cells viability, CellTiter-Glo, 72 h; activity change, negative = cytotoxicity: at 46.1 µM (top of the series)
# Procedure, shortened: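 In this primary screen, KB-V1 cells overexpressing P-gp are incubated with library compounds (lowest to highest concentration) for 72 h at 37 degrees C before a luminescent ATP viability read.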
# On the % scale 0 is the no-effect control and ±100 the full control effect; potency means the concentration at half of the fitted maximal effect.
Compound,Potency,"activity change, negative = cytotoxicity"
CCOc1ccc(S(=O)(=O)N2CCN(C(=O)CN3C(=O)NC4(CCCC4)C3=O)CC2)cc1,"inconclusive: 29.1 µM [rising, partial curve, poor fit]",
CSc1ccc(/C=C/C(=O)c2ccc(NC(=O)C(C)C)cc2)cc1,"inconclusive: 16.4 µM [cytotoxic, single point]",
O=C(NC1CCCC1)C(c1ccncc1)N(C(=O)Cc1cccs1)c1cccc(F)c1 (configuration not stated),"inconclusive: 2.31 µM [rising, partial curve, poor fit]",
Cc1ccnc(NC(=O)c2cccc(OC(F)F)c2)n1,,inactive: 28.4%
O=C(OCc1ccccc1)/C(=C/c1cccc2ccccc12)NC(=O)c1ccccc1,,inactive: -0.942%
CCn1c(/C=C/c2ccccc2F)nc2ccccc2c1=O,"inconclusive: 20.6 µM [cytotoxic, single point]",
COc1ccccc1NC(=O)C1CCCN(S(=O)(=O)c2ccc3[nH]c(=O)ccc3c2)C1 (configuration not stated),"inconclusive: 14.6 µM [rising, single point]",
CCOC(=O)C1(Cc2cccc(OC)c2)CCN(Cc2csc(C(C)=O)c2)CC1,"inconclusive: 18.4 µM [cytotoxic, partial curve]",
CCCCCCCC(=O)Oc1ccc(C(=O)Nc2cc(C)on2)cc1,,inactive: 19.5%
COc1ccc(NC(=S)NNC(=O)c2nnn(-c3ccccc3)c2C)cc1,active: 18.4 µM,
Nc1cc(Cl)ccc1C(=O)OCC(=O)NCC1CCCO1 (configuration not stated),,inactive: 0%
COc1ccccc1C(=O)COC(=O)CNS(=O)(=O)c1ccc(C)c(C)c1,"inconclusive: 9.2 µM [rising, partial curve, poor fit]",
CCOC(=O)C1=C(C)NC(=O)NC1c1ccc(OCC(=O)N2CCCCC2)cc1 (configuration not stated),"inconclusive: 20.6 µM [rising, single point]",
O=S(=O)(NC1CCCCC1)c1ccc(N2CCOCC2)nc1,"inconclusive: 29.1 µM [cytotoxic, partial curve, poor fit]",
Cn1cnnc1SCC(=O)N1N=C(c2ccc(Cl)cc2)CC1c1ccco1 (configuration not stated),,inactive: 1.62%
O=C(NCc1ccc2c(c1)OCO2)C1CCN(c2ncccn2)CC1,"inconclusive: 20.6 µM [cytotoxic, single point]",
Cc1cc(C)cc(OCC(=O)Nc2cccc(-c3nnc(-c4ccco4)o3)c2)c1,active: 14.6 µM,
O=S(=O)(c1ccc(Br)s1)N1CCN(c2ccccc2)CC1,"inconclusive: 23.1 µM [cytotoxic, single point]",
Cc1nn(C)c(C)c1CCC(=O)O,"inconclusive: 2.59 µM [cytotoxic, full curve]",
COc1ccc(COC(=O)N/N=C(\C)CC(=O)Nc2ccc(Cl)cc2)cc1,"inconclusive: 23.1 µM [rising, single point]",
O=C(Nc1ccc(S(=O)(=O)Nc2ncccn2)cc1)c1ccco1,"inconclusive: 25.9 µM [rising, single point]",
COc1ccc(NC(=O)C(C2CC2)n2c(=O)c(-c3cc4ccccc4[nH]3)nc3ccccc32)cc1 (configuration not stated),,inactive: -14.6%
O=C(Cc1ccc(-n2c(=O)c3ccccc3n(Cc3ccccc3Cl)c2=O)cc1)NCC1CCCO1 (configuration not stated),,inconclusive: 33.8%
Cc1ccc(Cl)cc1Nc1nn2c(=O)c3ccc(C(=O)NC(C)c4ccccc4)cc3nc2s1 (configuration not stated),,inactive: 5.66%

# Of the compounds above, 2 contain an NH in an aromatic ring:
Compound,Potency,"activity change, negative = cytotoxicity"
COc1ccccc1NC(=O)C1CCCN(S(=O)(=O)c2ccc3[nH]c(=O)ccc3c2)C1 (configuration not stated),"inconclusive: 14.6 µM [rising, single point]",
COc1ccc(NC(=O)C(C2CC2)n2c(=O)c(-c3cc4ccccc4[nH]3)nc3ccccc32)cc1 (configuration not stated),,inactive: -14.6%

# (continued)

Compound,Potency,"activity change, negative = cytotoxicity"
Cc1ccc(NC(=O)c2c(C(F)(F)F)nn(C)c2Cl)cc1C,,inconclusive: -42.8%
Nc1ccc(C(=O)N/N=C\C=C\c2cccc([N+](=O)[O-])c2)cc1,"inconclusive: 2.06 µM [rising, full curve]",
CCOc1cccc(NC(=O)C2CC(=O)N(C)C(=Nc3ccc(OC)cc3)S2)c1 (configuration not stated),"inconclusive: 13 µM [cytotoxic, partial curve, poor fit]",
COc1ccc(Cn2nnnc2C(c2cccs2)N2CCN(c3ccccc3)CC2)cc1 (configuration not stated),"inconclusive: 8.2 µM [cytotoxic, partial curve]",
COc1ccc(C2=Nn3c(nnc3-c3ccccn3)SC2)cc1,active: 14.6 µM,
CC1CCN(c2nc3c(N)ncnc3n2[C@@H]2O[C@H](CO)[C@@H](O)[C@H]2O)CC1,,inactive: 3.06%
Cc1cccc(CN2CCN(C(c3ccccc3)c3ccc(Cl)cc3)CC2)c1 (configuration not stated),"inconclusive: 18.4 µM [cytotoxic, single point]",
Cc1ccc(Cl)cc1N1CCN(C(=O)CCS(=O)(=O)c2ccc3c(c2)oc(=O)n3C)CC1,active: 7.31 µM,
O=[N+]([O-])c1cc([N+](=O)[O-])c(Oc2cc(F)ccc2F)cc1NN1CCCCC1,"inconclusive: 23.1 µM [cytotoxic, single point]",
CC(N=Cc1cc([N+](=O)[O-])ccc1O)c1ccccc1 (configuration not stated),,inactive: 0%
COCCn1nnnc1C(c1cc2cc(OC)ccc2[nH]c1=O)N1CCC(Cc2ccccc2)CC1 (configuration not stated),"inconclusive: 29.1 µM [cytotoxic, single point]",
O=C(Nc1c(-c2ccc(Cl)cc2)[nH][nH]c1=O)c1ccc(Br)cc1,,inactive: 0%
CCOC(=O)CC1(NC(=O)c2cc(COc3cccc(OC)c3)on2)CCCCC1,,inactive: 0%
O=C(c1ccncc1)N1CCCC(N2CCN(c3cccc(C(F)(F)F)c3)CC2)C1 (configuration not stated),"inconclusive: 29.1 µM [cytotoxic, single point]",
COc1ccc(CN2CCN(Cc3ccc4cc(F)ccc4n3)CC2CCO)c(C)c1C (configuration not stated),"inconclusive: 25.9 µM [cytotoxic, single point]",
O=C(COC(=O)c1ccc(N2CCCC2=O)cc1)Nc1ccccc1,"inconclusive: 29.1 µM [rising, single point]",
Cc1ccc(NC(=O)Cn2c(=O)n(CCCCC(=O)NCc3ccc4c(c3)OCO4)c(=O)c3ccccc32)cc1,,inactive: 7.85%
CN(CC(=O)NCCc1ccc(S(N)(=O)=O)cc1)Cc1ccc(Cl)cc1Cl,active: 16.4 µM,
COC(=O)c1[nH]c2ccccc2c1NC(=O)CN1CCC(C(N)=O)(N2CCCCC2)CC1,,inactive: -8.91%
COc1cc(-c2cc(NC(C)=O)c3ncc(-c4ccc(C(C)=O)cc4)n3c2)cc(OC)c1OC,active: 23.1 µM,
O=C(COC(=O)c1cc(=O)[nH]c2ccccc12)NC(=O)c1ccccc1,,inactive: 26.6%
CCCCC1CCC(C(=O)Nc2ccc(N3CCOCC3)cc2N2CCOCC2)CC1 (configuration not stated),,inactive: -2.35%
CN(C)c1cc[n+](CC(=O)N2c3ccccc3Sc3ccccc32)cc1,,inactive: 8.6%
OCCNCc1cc(Br)ccc1OCc1ccc(Cl)cc1Cl,active: 14.6 µM,

# Structural class, the entries above containing bromine
Compound,Potency,"activity change, negative = cytotoxicity"
O=S(=O)(c1ccc(Br)s1)N1CCN(c2ccccc2)CC1,"inconclusive: 23.1 µM [cytotoxic, single point]",
O=C(Nc1c(-c2ccc(Cl)cc2)[nH][nH]c1=O)c1ccc(Br)cc1,,inactive: 0%
OCCNCc1cc(Br)ccc1OCc1ccc(Cl)cc1Cl,active: 14.6 µM,

# Next results follow.

Compound,Potency,"activity change, negative = cytotoxicity"
N#Cc1c(C(F)(F)F)cc(-c2cccs2)nc1SCc1ccccc1F,"inconclusive: 16.4 µM [rising, partial curve, poor fit]",
CCOc1ccccc1Oc1nc(C)nc2c1oc1ccccc12,"inconclusive: 25.9 µM [cytotoxic, partial curve, poor fit]",
COc1ccc(N2CCN(C(CNC(=O)C(=O)NCc3ccncc3)c3ccco3)CC2)cc1 (configuration not stated),"inconclusive: 9.2 µM [cytotoxic, partial curve]",
CCCCCCn1c(NCC)nc2c1c(=O)[nH]c(=O)n2C,"inconclusive: 29.1 µM [cytotoxic, single point]",
O=C(NCc1ccc(F)cc1)C1CCN(C(=O)Nc2ccc(F)cc2)CC1,"inconclusive: 4.61 µM [cytotoxic, partial curve]",
Cc1nn(-c2cc(C)c3ccccc3n2)c2c1C1C(C2)C1(C)C (configuration not stated),,inactive: -2.03%
O=C(NCCCCCCCN1CCCCCCC1)C(C1CCCCC1)C1CCCCC1,active: 3.26 µM,
CCC(C)Nc1nc2c(c(=O)n(C)c(=O)n2C)n1Cc1ccc(F)cc1 (configuration not stated),"inconclusive: 7.31 µM [cytotoxic, partial curve]",
COc1cccc(OC)c1OCCOc1ccc(C(=O)c2ccccc2)cc1,"inconclusive: 8.2 µM [cytotoxic, single point]",
Cc1ccccc1NC(=O)C(=Cc1ccc(C(=O)O)cc1)C(=O)Nc1ccccc1C,"inconclusive: 29.1 µM [cytotoxic, single point]",
COc1ccc(N2Cc3ccc(OC)c(OC)c3C2=O)cc1,,inactive: 0%
CCc1ccc(CN(C)Cc2nc(COc3ccccc3)no2)nc1,"inconclusive: 16.4 µM [cytotoxic, single point]",
N#CCOc1coc(CN2CCN(c3cccc(Cl)c3)CC2)cc1=O,"inconclusive: 16.4 µM [rising, partial curve]",
Oc1ccc2ccccc2c1/C=C/c1ccc2c(Br)cc(Br)c(O)c2n1,active: 4.11 µM,
CCc1cc2c(-c3ccccc3)cc(=O)oc2c(CN2CCOCC2)c1O,"inconclusive: 35.5 µM [cytotoxic, single point]",
COc1ccccc1-c1noc2c1C(=O)N(Cc1cn(Cc3ccccc3)nn1)CC2,"inconclusive: 16.4 µM [cytotoxic, single point]",
CC(C)(C)C(=O)Nc1nnc(SCc2ccc(F)cc2)s1,"inconclusive: 31.6 µM [cytotoxic, single point]",
CCOc1ccc(NC(=O)CCc2nnc3n(C)c(=O)c4sccc4n23)cc1,,inactive: 0.685%
Cc1cc(C)cc(NC(=O)c2cnn(-c3ccccc3)c2C2CCNCC2)c1,,inactive: 13.9%
COc1ccc(C2/C=C\CN(C(=O)OCC3c4ccccc4-c4ccccc43)CC(=O)N2Cc2cccc(F)c2)cc1 (configuration not stated),,inactive: -4.09%
O=C(CCNS(=O)(=O)c1ccc2nsnc2c1)N1CCN(c2ccncc2)CC1,"inconclusive: 29.1 µM [rising, single point]",
COc1ccc(-c2nc(NC(=O)C3=NN(c4cccc(C)c4)C(=O)CC3)sc2C)cc1,,inactive: 29.8%
O=C(COc1ccc(Cl)cc1Cl)Nc1ccccn1,"inconclusive: 20.6 µM [cytotoxic, partial curve]",
CN(CC1CCCN(CCc2ccccc2F)C1)C(=O)c1cc2ccccc2o1 (configuration not stated),,inactive: 6.76%
